Values of other authors as cited in patent US20260034249A1, “COMPOSITIONS AND METHODS FOR MODIFYING FERTILITY” (The Broad Institute, Inc., priority 2023, published 2026).
At least one structure is not confirmed: it was looked up by name or label, or the drawing left a doubt.

Test system: F3
Conditions: endometrial stromal cell tissue factor content

## CC#C[C@]1(O)CC[C@H]2[C@@H]3CCC4=CC(=O)CCC4=C3[C@@H](c3ccc(N(C)C)cc3)C[C@@]21C [RU 486]
  progesterone-stimulated F3 expression: RU 486 blocks progesterone-
